In the supplement of paper PMC12067093, “Discovery and optimisation of a covalent ligand for TRIM25 and its application to targeted protein ubiquitination” (Chemical Science, 2025):
This is one part of the list.

Compound: CC1Cc2ccccc2N1C(=O)C1CCCN(C1)C(=O)CCl (mixture of isomers) [TRIM25 ligand 11 (diastereomer mixture)]
Test: probe-labelled cysteine peptide fold change vs DMSO (competition) (log2 fold change); higher = less target engagement (more negative = stronger competition)
Settings: THP-1, incubation time: 4 h
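Also: competitive chemoproteomic profiling in live THP-1 cells with an iodoacetamide desthiobiotin (IA-DTB) probe, comparing probe-labelled peptide intensities in compound-treated cells against DMSO-treated controls.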

| Target | probe-labelled cysteine peptide fold change (10 µM) | probe-labelled cysteine peptide fold change (50 µM) |
| --- | --- | --- |
| DNM1_Q05193_607_QLELACETQEEVDSWK (UniProt Q05193) | -0.108 | -0.145 |
| DHX37_Q8IY37_274_LKLPILSEEQVIMEAVAEHPIVIVCGETGSGK (UniProt Q8IY37) | 0.00405 | -0.0532 |
| DIAPH1_O60610_437_LIEECISQIVLHK (UniProt O60610) | 0.122 | 0.115 |
| DNAJA1_P31689_153_GAVECCPNCR (UniProt P31689) | -0.148 | 0.0385 |
| DHX29_Q7Z478_1245_LACIVETAQGK (UniProt Q7Z478) | 0.132 | 0.0083 |
| DGLUCY_Q7Z3D6_316_GIGHLLCK (UniProt Q7Z3D6) | 0.136 | 0.0693 |
| DNAJC16_Q9Y2G8_709_YFCLFKPQK (UniProt Q9Y2G8) | -0.116 | -0.179 |
| DIAPH1_O60610_796_LVAEDLSQDCFWTK (UniProt O60610) | -0.0218 | 0.0534 |
| DICER1_Q9UPY3_801_CFGILTAKPIPQIPHFPVYTR (UniProt Q9UPY3) | -0.0745 | -0.035 |
| DMXL2_Q8TDJ6_62_HGNIQVSCVECSNQQGR (UniProt Q8TDJ6) | -0.159 | -0.593 |
| DHRS7_Q9Y394_172_CVLPHMIER (UniProt Q9Y394) | -0.0579 | -0.0142 |
| DNAJC16_Q9Y2G8_744_GKPSCGLGSRPIK (UniProt Q9Y2G8) | -0.287 | -0.281 |
| DNAJC13_O75165_820_YECLAEEIK (UniProt O75165) | 0.367 | 0.248 |
| DHX30_Q7L2E3_286_LSTLTLLWPCPMTFVAK (UniProt Q7L2E3) | -0.558 | -0.944 |
| DMXL1_Q9Y485_1352_CIAGEVVALNEAESNHER (UniProt Q9Y485) | 0.0707 | -0.383 |
| DIS3L_Q8TF46_482_GCEDVDDTLSVR (UniProt Q8TF46) | -0.134 | -0.0752 |
| DIS3L2_Q8IYB7_396_DLDDALSCK (UniProt Q8IYB7) | 0.14 | 0.266 |
| DNAJC13_O75165_2082_VIHALSENELCVR (UniProt O75165) | 0.113 | -0.121 |
| DNAAF2_Q9NVR5_701_EYIEHCNTPTTDSDSSIAVK (UniProt Q9NVR5) | -0.0917 | -0.143 |
| DHX30_Q7L2E3_606_YFGGCPVIK (UniProt Q7L2E3) | 0.136 | 0.124 |

Complete entries, quoted from the list:
DICER1_Q9UPY3_801_CFGILTAKPIPQIPHFPVYTR (UniProt Q9UPY3) in the list: probe-labelled cysteine peptide fold change (10 µM): -0.0745; probe-labelled cysteine peptide fold change (50 µM): -0.035
DIAPH1_O60610_796_LVAEDLSQDCFWTK (UniProt O60610) in the list: probe-labelled cysteine peptide fold change (10 µM): -0.0218; probe-labelled cysteine peptide fold change (50 µM): 0.0534

(next part)

| Target | probe-labelled cysteine peptide fold change (10 µM) | probe-labelled cysteine peptide fold change (50 µM) |
| --- | --- | --- |
| DMXL1_Q9Y485_458_ELGCDK (UniProt Q9Y485) | -0.0601 | -0.109 |
| DHX34_Q14147_628_SAQSSPECAAAR (UniProt Q14147) | -0.0842 | -0.0802 |
| DNASE2_O00115_327_GGGTLCAQLPALWK (UniProt O00115) | -0.0717 | -0.0161 |
| DNM1L_O00429_505_HPDFADACGLMNNNIEEQRR (UniProt O00429) | -0.0202 | -0.151 |
| DHX37_Q8IY37_766_LSCPITALGR (UniProt Q8IY37) | -0.0635 | 0.0316 |
| DHRS7_Q9Y394_147_SLCMDTSLDVYRK (UniProt Q9Y394) | 0.00619 | -0.133 |
| DKC1_O60832_74_TTHYTPLACGSNPLK (UniProt O60832) | 0.00323 | -0.115 |
| DNAJC13_O75165_12_DLACFYTTK (UniProt O75165) | -0.0176 | 0.185 |
| DKC1_O60832_74_TTHYTPLACGSNPLKR (UniProt O60832) | -0.0788 | -0.303 |
| DHX29_Q7Z478_1019_VPLEELCLHIMK (UniProt Q7Z478) | -0.0744 | 0.119 |
| DICER1_Q9UPY3_1584_AAQLFLCSLGLK (UniProt Q9UPY3) | -0.0564 | -0.0272 |
| DKK2_Q9UBU2_214_ICKPVLHQGEVCTK (UniProt Q9UBU2) | -0.16 | -0.0316 |
| DHX29_Q7Z478_1059_KIGACELNEPK (UniProt Q7Z478) | -0.146 | -0.0427 |
| DLGAP5_Q15398_696_SSIEDAQCPGLPDLIEENHVVNK (UniProt Q15398) | 0.312 | -0.417 |
| DNM1L_O00429_367_ICYIFHETFGR (UniProt O00429) | 0.0757 | -0.178 |
| DNAJB1_P25685_269_EALCGCTVNVPTLDGR (UniProt P25685) | 0.0447 | 0.0617 |
| DIAPH1_O60610_267_LLSALCILPQPEDMNER (UniProt O60610) | -0.121 | -0.0922 |
| DMAC2_Q9NW81_159_CCHVDDWCLSR (UniProt Q9NW81) | 0.099 | 0.197 |
| DHX33_Q9H6R0_190_YSCVILDEAHER (UniProt Q9H6R0) | 0.199 | 0.0264 |
